The assay can be described thus: qHTS Assay for Lipid Storage Modulators in Drosophila S3 Cells.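 For cell number change: cells counted by Cell Tracker Red CMTPX staining in the red channel.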 The following applies: BODIPY lipid droplet fluorescence, 18-24 h; for cell number change: measured here: cell count max response, cells fed with added oleic acid. In outline:
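Drosophila S3 cells loaded with oleic acid (400 uM, as added) and compounds at several concentrations; lipid droplets imaged by 488-nm laser-scanning cytometry, 500–530 nm intensity and object ratio to cell channel. Percent activity normalized to 20 uM Triacsin C.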

Where [1] appears, read: measured here: cell number channel AC50, cells fed with added oleic acid.
Where [2] appears, read: measured here: lipid fluorescence (Fed channel) AC50, cells fed with added oleic acid.

Some of the results follow. These are further read-outs of the screen, such as a control signal, another cell line or another target. No call is given for them. Compounds called inactive in the main read-out are mostly missing here. The note in brackets gives the kind of curve behind each potency; many fits are weak.

Turning to `O=C(Nc1nc2ccccc2s1)C1CC(=O)N(c2ccc(F)cc2)C1` (configuration not stated), the cell number change was -1.75%.
Regarding `CCOC(=O)c1sc2nccc(N(C)C)c2c1N=CNOCc1c(F)cccc1Cl`, the cell number change is 34.9%. In addition, the AC50 under setting [1] was 29.1 µM [rising, single point]. In addition, the AC50 under setting [2] is 10.3 µM [rising, partial curve].
With `Cc1cccc(C(=O)N/N=C/c2ccoc2)c1`, the cell number change came out at 6.48%. Moreover, the AC50 under setting [2] is 0.112 µM [falling, full curve, poor fit].
With `COc1ccc(-c2ccc(-c3noc(C)n3)c(OC)n2)cc1`, the cell number change was 16.6%. For the same compound, under setting [2], the AC50 is 3.66 µM [rising, single point].
As for `O=C(CCc1nc2ccccc2c(=O)[nH]1)NC1CCN(Cc2ccccc2)CC1`, the cell number change is -8.29%.
On to `O=C(NC1CCCCC1)C(c1ccc(Cl)cc1)N1CCC2(CC1)OCCO2` (configuration not stated), for which the cell number change is -1.84%. Also, under setting [2], the AC50 was 29.1 µM [falling, single point].
For the compound `Cc1cccc2sc(NC(=O)CCNS(=O)(=O)c3cccc4nonc34)nc12`, the cell number change is -23.3%. Besides, under setting [2], the AC50 was 1.03 µM [rising, single point].
Consider `COc1ccccc1N1CCN(C2CCN(C(=O)COc3ccccc3)CC2)CC1`, for which the cell number change was -37%. In addition, under setting [1], the AC50 was 1.3 µM [falling, full curve, poor fit]. Moreover, under setting [2], the AC50 is 1.16 µM [falling, full curve].
Regarding `COc1cccc(-c2cc(C(=O)N3CCN(C(=O)c4ccco4)CC3)on2)c1`, the cell number change is -5.01%.
Consider `Fc1ccc(-c2nc3ccncc3[nH]2)cc1`, for which the AC50 was 6.51 µM [rising, single point] under setting [1] and 1.64 µM [rising, partial curve] under setting [2].
With `CCOC(=O)c1c(NC(=O)CN2CCN(C(=O)c3ccco3)CC2)sc(C)c1C`, the cell number change is -10.8%.
In the case of `C=CCSC(=S)Nc1c(C)n(C)n(-c2ccccc2)c1=O`, the cell number change is -38.3%. Further, the AC50 under setting [1] is 0.259 µM [falling, full curve]. For the same compound, the AC50 under setting [2] was 0.259 µM [falling, full curve].
`CCc1sc(N(C(=O)Cc2ccccc2)c2ccccc2)nc1-c1ccccc1`: the cell number change was -8.37%. Also, the AC50 under setting [1] is 0.411 µM [falling, full curve, poor fit]. Moreover, the AC50 under setting [2] is 14.6 µM [falling, partial curve].
Turning to `CNC(=S)N/N=C/c1c2ccccc2c(Cl)c2ccccc12`, the cell number change was -2.1%. The AC50 under setting [2] was 0.00461 µM [rising, full curve, poor fit].
With `CCOc1ccc(S(=O)(=O)NCCCn2ccnc2)cc1`, the cell number change is -17.4%. The AC50 under setting [2] is 6.51 µM [rising, single point].
On to `Cc1ccc(CN(C)C(=O)C2CCN(C(=O)Nc3ccccc3)CC2)o1`, for which the cell number change was found to be 28.5%.
Turning to `Cc1cc(F)ccc1NC(=O)c1cc(S(=O)(=O)N2CCOCC2)cn1C`, the cell number change was determined as 8.36%. Besides, under setting [2], the AC50 was 18.4 µM [rising, single point].
For the compound `CCOc1ccccc1C1NC(=O)NC(C)=C1C(=O)OCc1ccccc1` (configuration not stated), the cell number change is -4.73%. Besides, the AC50 under setting [2] is 0.259 µM [falling, single point].
As to `Cc1c(C)n(CCCN(C)C)c2ncnc(Nc3ccccc3)c12`, the AC50 under setting [1] was 6.51 µM [rising, single point].
Consider `Cc1cccc(CN2CCC(CNC(=O)CCNC(=O)Cn3ccc4ccccc4c3=O)CC2)c1`, for which the cell number change was -120%. The AC50 under setting [1] was 20.6 µM [falling, partial curve]. Besides, the AC50 under setting [2] is 20.6 µM [falling, partial curve].
With `COc1ccc(CN(C)C(=O)CCN2C(=O)c3ccccc3C2=O)c(OC)c1OC`, the cell number change was -8.97%.
As for `CCN1CCN(c2nc(Nc3cccc(OC)c3)nc(N)c2[N+](=O)[O-])CC1`, the cell number change amounted to 22.8%. Besides, the AC50 under setting [2] is 5.8 µM [rising, partial curve].
Turning to `COc1ccccc1CCn1cnc2c3cc(C)ccc3n(C)c2c1=O`, the cell number change worked out at 10%. The AC50 under setting [1] is 4.11 µM [rising, single point]. Moreover, the AC50 under setting [2] is 2.91 µM [rising, partial curve].
As to `COC(=O)c1cn(NC(=O)COc2ccc(Cl)cc2)c(=O)c2ccccc12`, the cell number change was -36.4%.
As to `COc1ccc(-c2nc(-c3cccnc3)no2)cc1`, the cell number change was -0.483%.
For the compound `O=C(COc1ccc(Cl)cc1Cl)Nc1ccc(C(=O)Nc2ccccc2C(=O)O)cc1`, the cell number change amounted to 50.2%. Moreover, under setting [1], the AC50 was 25.9 µM [rising, single point].
For `Cc1cc(C)c(C(=O)CSc2n[nH]c(-c3ccncc3)n2)c(C)c1`, the cell number change was -3.9%. Moreover, under setting [1], the AC50 was 0.00517 µM [falling, full curve, poor fit]. Under setting [2], the AC50 was 0.00461 µM [falling, full curve, poor fit].
As for `CCCOc1ccc(Cc2nn[nH]n2)cc1`, the cell number change is -11.2%. In addition, under setting [2], the AC50 is 0.231 µM [falling, full curve].
As for `Cc1ccc(S(=O)(=O)Nc2cc3c4c(c2)CC(=O)N4CCC3)cc1`, the AC50 under setting [1] was 1.46 µM [rising, partial curve].
Consider `Cc1cc(NC(=NC2CC2)c2ccccc2)n(-c2ccccc2)n1`, for which the cell number change stood at 40.8%. The AC50 under setting [1] is 20.6 µM [rising, single point]. Besides, the AC50 under setting [2] was 29.1 µM [rising, single point].
As to `Cc1cc(C)c2c(c1)/C(=N/NC(=S)Nc1ccc(F)cc1)CCC2`, the cell number change was -36.8%. The AC50 under setting [1] is 14.6 µM [falling, single point]. Besides, under setting [2], the AC50 is 0.326 µM [rising, full curve].
As for `Cc1cc(Br)ccc1NC(=O)c1sc2ncnc(N3CCN(c4ccccn4)CC3)c2c1C`, the cell number change was 33.1%. Also, under setting [1], the AC50 was 14.6 µM [rising, single point]. Also, under setting [2], the AC50 was 29.1 µM [falling, single point].
For the compound `CCCN(CCO)Cc1cccc(Oc2ccccc2)c1`, the cell number change was -9.72%. In addition, the AC50 under setting [2] was 3.26 µM [falling, full curve].
With `CCOC(=O)n1c(=O)n(Cc2cccc(F)c2)c2ccccc21`, the cell number change stood at 46.3%. Under setting [1], the AC50 was 29.1 µM [rising, single point]. The AC50 under setting [2] is 29.1 µM [rising, single point].
`COc1ccccc1CCNC(=O)Cn1ccc2cc(S(=O)(=O)N3CCC(C)CC3)ccc21`: the cell number change is 11.6%.
In the case of `COc1ccc(-c2noc(CCC(=O)Nc3ccc(C)c(C)c3)n2)cc1`, the cell number change was -27.1%. The AC50 under setting [2] was 1.3 µM [falling, full curve, poor fit].
For the compound `COC(=O)c1sc(NC(=S)NC(=O)c2ccccc2Cl)nc1C`, the cell number change is 1.41%. In addition, the AC50 under setting [2] is 0.184 µM [rising, full curve].
As for `O=[N+]([O-])c1ccccc1SN(Cc1ccccc1)c1ccccn1`, the cell number change was determined as 8.01%. Under setting [2], the AC50 is 29.1 µM [rising, single point].
Consider `Cc1cccc(CNC(=O)C2CCC(=O)N(C3CCCC3)C2)c1` (configuration not stated), for which the cell number change worked out at 15.2%.
As to `CC(=O)c1cccc(NC(=O)c2cccc(NC(=O)c3ccco3)c2)c1`, the cell number change is 38.1%. Besides, under setting [1], the AC50 is 0.00651 µM [rising, full curve, poor fit].
For `CC(C(=O)NCCCN1CCOCC1)n1cccc1C(=O)c1ccccc1` (configuration not stated), the cell number change turned out to be 22.4%. Under setting [2], the AC50 is 14.6 µM [rising, partial curve, poor fit].
As to `CCOC(=O)c1nc[nH]c1C`, the cell number change is -0.773%.
In the case of `O=C(Nc1cc(S(=O)(=O)Nc2ccccc2Cl)ccc1O)c1sc2cc(Cl)ccc2c1Cl`, the cell number change was -19.7%. Besides, the AC50 under setting [2] is 4.11 µM [falling, single point].
Regarding `CCCCc1cc(=O)oc2c(C)c(OCC(=O)N3CCC(C(=O)O)(c4ccccc4)CC3)ccc12`, the cell number change was -7.12%. Further, under setting [2], the AC50 was 20.6 µM [rising, single point].
`CC(=O)Nc1ccc(NS(=O)(=O)c2ccc(CN3C(=O)c4cccnc4C3=O)cc2)cc1`: the cell number change is -58%. Besides, the AC50 under setting [1] is 29.1 µM [falling, single point].
Turning to `COc1ccc(N2CCN(C(=O)CN(CCc3ccccc3)S(C)(=O)=O)CC2)cc1`, the cell number change is 3.04%. Moreover, under setting [1], the AC50 was 6.51 µM [falling, single point]. In addition, the AC50 under setting [2] is 11.6 µM [falling, partial curve].
In the case of `Oc1ccccc1N1CCN(CC(O)COC2CCCc3ccccc32)CC1` (configuration not stated), the cell number change worked out at 15.6%. Also, the AC50 under setting [2] was 9.2 µM [falling, partial curve].
`Cc1ccc2c(c1)N(CC(=O)N1CCCCC1)C(=O)C(C)O2` (configuration not stated): the cell number change amounted to 10.8%.
For the compound `CCOC(=O)c1c(-c2ccccc2)csc1N1C(=O)Nc2ccccc2N1O`, the cell number change is 2.48%. In addition, the AC50 under setting [1] was 0.58 µM [falling, single point]. In addition, the AC50 under setting [2] was 0.326 µM [falling, partial curve, poor fit].
Regarding `CC1CCN(C(=S)Nc2ccc(F)cc2)CC1`, the AC50 under setting [2] was 13 µM [rising, single point].
With `CCOc1ccccc1-n1nnnc1SCC(=O)OC`, the cell number change is -24.2%. Also, the AC50 under setting [2] is 29.1 µM [falling, single point].
For `CCN1CCN(C(=O)c2ccc3c(=O)n(C4CCCC4)c(=S)[nH]c3c2)CC1`, under setting [2], the AC50 was 2.91 µM [rising, single point].
For the compound `CCN(CC)C(=O)C(C)N(C#N)c1nc(Cl)nc(N(C)C)n1` (configuration not stated), the cell number change was -30.6%. Moreover, the half-maximal activity concentration (AC50) under setting [1] is 3.66 µM [falling, full curve, poor fit]. For the same compound, the AC50 under setting [2] is 29.1 µM [falling, single point].
Consider `COc1ccc(-n2nc(C(=O)NCC(=O)NCc3ccc(F)cc3)c3ccccc3c2=O)cc1`, for which the cell number change is -2.7%. For the same compound, the AC50 under setting [2] is 0.651 µM [rising, partial curve, poor fit].
For `COc1ccc(CCNC(=O)CN2C(=O)COc3ccc(S(=O)(=O)N4CCCC4)cc32)cc1OC`, the cell number change was -8.87%.
Turning to `CCNc1nc(NCC)nc(N/N=C/c2ccc(OC)cc2)n1`, the cell number change amounted to 9.36%.
For the compound `Cc1c(/C(O)=C2\C(=O)C(=O)N(CCCN(C)C)C2c2ccccc2)cnn1-c1ccccc1` (configuration not stated), the cell number change amounted to 6.6%. In addition, the AC50 under setting [2] is 1.64 µM [falling, partial curve, poor fit].
For the compound `COc1cc2c(cc1OC)-c1cc(Nc3cccc(F)c3)nc(=O)n1CC2`, the cell number change is -4.17%.
For `CC(=O)Nc1ccc(NC(=O)[C@@H]2CCCC[C@@H]2C(=O)O)cc1`, the cell number change was found to be 19.3%. Also, under setting [1], the AC50 is 1.84 µM [falling, partial curve, poor fit]. Moreover, the AC50 under setting [2] is 1.84 µM [falling, partial curve, poor fit].
For `O=S(Cc1ccccc1)CC(O)(c1ccc(Cl)cc1)c1ccc(Cl)cc1` (configuration not stated), the cell number change is -33.6%. Besides, under setting [1], the AC50 is 29.1 µM [falling, single point]. Moreover, under setting [2], the AC50 is 25.9 µM [falling, single point].

Source of the values: PubChem BioAssay AID2685 (National Center for Advancing Translational Sciences (NCATS), 2010).
